Among the data in PMC5087487, “A Graphene Oxide-Based Fluorescent Method for the Detection of Human Chorionic Gonadotropin” (Sensors (Basel, Switzerland), 2016) are binding values, retold here.

These are yes or no findings as the source states them, for the method shown.

This assay addresses T1, FITC-labeled hCG-specific binding peptide aptamer FITC-….
T1 sequence (peptide, fluorescein isothiocyanate (FITC) on the N-terminus): PPLRINRHILTR
The assay can be described thus: other fluorescence titration; 50 nM FITC-peptide first adsorbed on graphene oxide (2 ug/mL, 10 min, fluorescence quenched); protein added, 15 min at room temperature, PBS 20 mM pH 7.2; recovery of fluorescence (excitation 470 nm, emission 518 nm) on release of the peptide from GO; both purified.

On to Thrombin (enzyme), for which the binding entry was “no binding (tested: 10 ng/mL)”.
